{"source": "paper PMC3576375", "target": "GST-CT082_(Δ330–450) (Chlamydia trachomatis L2/434)", "test": "far-Western, overlay or dot blot; extracts of E. coli expressing GST fusions resolved by SDS-PAGE and blotted on nitrocellulose; membrane probed with 1.2 µg purified (6x)His-CT584 in 20 mM HEPES pH 7.5, 50 mM KCl, 10 mM MgCl2, 1 mM DTT, 0.1% Nonidet P-40, 16 h at 4°C; detection with anti-His; only the binder purified", "note": "Results are given in words; binding and its absence hold for the method and conditions named. Sequences can lack the tags named with a protein.", "data": [{"binder": "(6x)His-CT584 (protein, UniProt O84588 1-183) MTTKPKTLEIDNNTFLLLEGNLKRIFATPIGYTTFREFQNVVFNCAQGQQELANFLFEMLINGKLLQELPAGQKQSAQSLIVQFMMPIRVAKDIHERGEFINFITSDMLAQQERCVFLNRLSRVDGQEFLLMTDVQNTCHLIRHLLSRLLEAQKNPIGEKNLQEIQEDLDSLRAHFEELTKSV", "values": [{"measurement": "binding", "value": "no binding"}]}]}
